Test results published in article PMC11247094.
Results are given in words; binding and its absence hold for the method and conditions named. Some binding calls cover weakened binding; strength is not graded here.

Molecular target: Respiratory syncytial virus matrix (M) protein (respiratory syncytial virus, strain rA2-mK+ (parent strain A2)) (UniProt P0DOE7)
Assay: cryo-EM structure; whole-cell cryo-electron tomography and sub-tomogram averaging of the M layer in intact RSV rA2-mK+ virions from BEAS-2B cells; 38,771 sub-tomograms; 4.6 Å; PDB 4v23 M dimers fitted

B1: Respiratory syncytial virus matrix (M) protein (protein, UniProt P0DOE7 1-256)
chain: METYVNKLHEGSTYTAAVQYNVLEKDDDPASLTIWVPMFQSSMPADLLIKELANVNILVKQISTPKGPSLRVMINSRSAVLAQMPSKFTICANVSLDERSKLAYDVTTPCEIKACSLTCLKSKNMLTTVKDLTMKTLNPTHDIIALCEFENIVTSKKVIIPTYLRSISVRNKDLNTLENITTTEFKNAITNAKIIPYSGLLLVITVTDNKGAFKYIKPQSQFIVDLGAYLEKESIYYVTTNWKHTATRFAIKPMED
binding: binds
